Assay results published in PubChem BioAssay AID1671190 (National Center for Advancing Translational Sciences (NCATS), 2021).
Among all 580,000 compounds or so, about 6,100 (1.1%) were called active. This list was built around the results that the source calls inconclusive (neither active nor inactive); the mix of calls is not that of the screen. Calls come from the whole dose curve; as a rule, active = well fitted inhibition curve with a large enough effect; inconclusive = small, poorly fitted or top-dose-only effect, or another doubt; inactive = no such curve, though single readings can be large or run the other way. Potencies of inconclusive entries are doubtful fits and often do not repeat.

Protein sequences, listed by entry. Tags and fused reporters are not part of them. Lines headed by an entry give the natural chain unless they say otherwise; changes in a name come on top.
UniProt P18054: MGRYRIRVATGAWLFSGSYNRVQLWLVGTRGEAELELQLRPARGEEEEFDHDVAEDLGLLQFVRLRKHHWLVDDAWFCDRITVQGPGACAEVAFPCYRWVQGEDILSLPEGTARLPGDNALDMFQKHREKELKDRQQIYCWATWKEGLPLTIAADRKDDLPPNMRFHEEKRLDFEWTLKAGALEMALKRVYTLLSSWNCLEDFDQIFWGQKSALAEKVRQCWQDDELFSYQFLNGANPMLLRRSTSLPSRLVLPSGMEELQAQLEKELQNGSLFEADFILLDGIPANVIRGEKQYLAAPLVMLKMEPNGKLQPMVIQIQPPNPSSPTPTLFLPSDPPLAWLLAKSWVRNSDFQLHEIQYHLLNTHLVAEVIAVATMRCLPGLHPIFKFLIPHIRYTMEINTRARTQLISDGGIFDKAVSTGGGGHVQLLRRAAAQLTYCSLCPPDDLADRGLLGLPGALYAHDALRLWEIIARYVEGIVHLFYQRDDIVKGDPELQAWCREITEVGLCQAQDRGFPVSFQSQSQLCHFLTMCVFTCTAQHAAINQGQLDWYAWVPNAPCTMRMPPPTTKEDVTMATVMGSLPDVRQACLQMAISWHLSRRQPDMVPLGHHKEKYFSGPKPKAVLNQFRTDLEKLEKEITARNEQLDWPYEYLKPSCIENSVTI

Target: Polyunsaturated fatty acid lipoxygenase ALOX12 (Homo sapiens) (UniProt P18054)
Experiment: Primary qHTS assay for inhibitors of human arachidonate 12S-lipoxygenase (ALOX12): Round 2
Conditions: purified 12hLO, xylenol orange hydroperoxide absorbance; series mostly up to 108 µM
Outline: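 Hydroperoxide product was detected by ferrous iron/xylenol orange as the 573 to 405 nm absorbance ratio. Arachidonic acid at 40 uM (final) was turned over for 30 min at room temperature by 150 nM human 12hLO, pH 7.0 Hepes buffer, after 15 min compound preincubation.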
Potency is the fitted concentration of half-maximal effect.

Compound	Potency
CCOc1ccc(-c2c(C(=O)N/N=C(\C)c3ccccc3OC)nnn2-c2nonc2N)cc1	inactive
O=C1N[C@H](Cc2ccccc2)COC(=O)[C@@H](Cc2ccc(F)cc2)CC/C=C/C[C@H]1CC(=O)N(CCO)Cc1ccccc1	inconclusive: 44.7 µM [inhibitor, full curve, poor fit]
COc1ccc(C(C)C)cc1S(=O)(=O)NCC1CCCO1 (stereo not drawn)	inconclusive: 79.4 µM [inhibitor, partial curve, poor fit]
O=C(O)CCSc1ccc([N+](=O)[O-])cc1[N+](=O)[O-]	inactive
NC(=O)c1ccc(N2CCN(c3ccc(O)cc3)CC2)c([N+](=O)[O-])c1	inconclusive: 50.1 µM [inhibitor, partial curve, poor fit]
CCN1CCN(C(c2cc(OC)c(OC)c(OC)c2)c2nnnn2C(C)C)CC1 (stereo not drawn)	inconclusive: 35.5 µM [inhibitor, single point]
Cc1cccc(C(C)C)c1NC(=O)COC(=O)c1ccc2ccccc2n1	inconclusive: 31.6 µM [inhibitor, partial curve, poor fit]
O=C(c1ccccc1Cl)N1c2ncnn2C2(CCCCC2)[C@@H]2CCCC[C@@H]21	inconclusive: 126 µM [inhibitor, single point]
S=C(NCCN1CCOCC1)Nc1cccc(Cl)c1	inactive
Cc1c(C(=O)OC(C)C#N)oc2c1ccc1ccccc12 (stereo not drawn)	inconclusive: 0.562 µM [inhibitor, full curve, poor fit]
COc1cc(C2NC(=O)N(C)C(C)=C2C(=O)OC2CCCC2)cc(Br)c1O (stereo not drawn)	inconclusive: 44.7 µM [inhibitor, single point]
CN(C1=NC(=O)C(CC(=O)Nc2ccc(Br)cc2)S1)c1ccc(O)cc1 (stereo not drawn)	inconclusive: 44.7 µM [inhibitor, partial curve, poor fit]
O=C(NCCCN1CCCC1=O)c1cc(S(=O)(=O)N2CCOCC2)c(Cl)cc1Cl	inconclusive: 50.1 µM [inhibitor, partial curve, poor fit]
O=C(N1CCN(C/C=C/c2ccccc2)CC1)C(F)(F)C(F)(F)C(F)(F)C(F)(F)F	inactive
Cc1ccc(Oc2nc(-c3ccncc3)nc3ccccc23)cc1	inconclusive: 3.55 µM [inhibitor, full curve, poor fit]
O=C(O)c1cccc(Nc2nc3ccccc3nc2NS(=O)(=O)c2cccs2)c1	inconclusive: 35.5 µM [inhibitor, partial curve, poor fit]
CC(C)CNC(=O)C(=O)O	inactive
CCOc1c(Cl)cc(Cl)cc1CNCc1ccncc1	inconclusive: 28.2 µM [inhibitor, full curve, poor fit]

2 entries from above, reformatted.
Compound | Potency
Cc1c(C(=O)OC(C)C#N)oc2c1ccc1ccccc12 (stereo not drawn) | inconclusive: 0.562 µM [inhibitor, full curve, poor fit]
COc1cc(C2NC(=O)N(C)C(C)=C2C(=O)OC2CCCC2)cc(Br)c1O (stereo not drawn) | inconclusive: 44.7 µM [inhibitor, single point]
